Results of single-concentration screens

Protein sequences, listed by entry. Tags and fused reporters are not part of them.
UniProt P9WNZ1, whole entry: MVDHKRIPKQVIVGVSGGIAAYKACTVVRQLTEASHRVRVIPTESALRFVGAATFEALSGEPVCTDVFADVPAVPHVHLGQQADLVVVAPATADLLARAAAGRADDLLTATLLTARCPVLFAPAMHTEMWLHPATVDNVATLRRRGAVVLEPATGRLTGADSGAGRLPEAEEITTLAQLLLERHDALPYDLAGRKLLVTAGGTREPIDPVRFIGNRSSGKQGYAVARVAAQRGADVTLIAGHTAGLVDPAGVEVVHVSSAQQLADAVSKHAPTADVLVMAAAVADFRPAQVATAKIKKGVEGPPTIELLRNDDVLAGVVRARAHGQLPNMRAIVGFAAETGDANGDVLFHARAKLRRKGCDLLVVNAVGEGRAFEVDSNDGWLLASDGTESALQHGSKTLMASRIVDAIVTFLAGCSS
UniProt P9WFT3, whole entry: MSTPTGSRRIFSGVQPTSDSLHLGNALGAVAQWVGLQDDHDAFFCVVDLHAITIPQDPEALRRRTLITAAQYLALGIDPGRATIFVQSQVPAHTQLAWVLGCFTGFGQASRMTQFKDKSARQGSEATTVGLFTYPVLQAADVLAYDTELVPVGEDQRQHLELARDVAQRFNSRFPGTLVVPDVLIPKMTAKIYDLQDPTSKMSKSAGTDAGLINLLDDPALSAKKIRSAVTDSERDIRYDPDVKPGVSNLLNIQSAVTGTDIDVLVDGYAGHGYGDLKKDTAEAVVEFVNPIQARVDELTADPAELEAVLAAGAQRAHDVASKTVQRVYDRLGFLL

A: 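Coenzyme A biosynthesis protein CoaBC, Mycobacterium tuberculosis (UniProt P9WNZ1). Enzyme assay of CoaBC with a phosphate dye (Biomol Green) read at 650 nm. Tested at 30 µM. Higher reads as stronger inhibition, judged from the few compounds that gave an IC50. Most strong results did not repeat in a second test. About 67,000 compounds were tested under these conditions; 0.06% (about 40) showed 50% or more at least once.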
B: 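Tryptophan-tRNA ligase, Mycobacterium tuberculosis (UniProt P9WFT3). Enzyme assay of tryptophanyl-tRNA synthetase; the read-out is not stated. Concentration: 10 µM. Higher most likely means stronger inhibition; the record gives no direction and few retests gave an IC50. Size under these conditions: about 65,000 compounds, about 64 of them at 50% or above in at least one test.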

Values are the deposited “Percent Effect”, in %.
How 0% and 100% were set is not recorded. Most values in the screen are low, and negative values occur.
Compounds were drawn at random from those tested, without regard to their results.
A dash means the value is not listed here; it may have been measured.

structure,A,B
NC(=O)C1CCN(C(=O)c2cccn2Cc2cccs2)CC1,0.7168,-5.366
Cc1ccc2cc(CN(C)Cc3nccs3)c(=O)[nH]c2c1,0.6211,-3.473
CNC(=O)[C@@]12CCO[C@@H]1CCN(Cc1c(C)noc1C)C2,0.6085,0.6876
Cc1cc(C)n(CC(C)NCCn2nc(C)c(Cl)c2C)n1 (configuration not stated),7.152,-4.022
CN(CCOc1ccc(F)cc1)S(=O)(=O)c1cnn(C)c1,17.34,-3.297
COc1c(C)cnc(CN(C)C(=O)Nc2ccc3c(c2)CCO3)c1C,0.2457,3.846
CC(C)c1cc(N2CCSCC2)n2nccc2n1,-9.524,8.748
CO[C@@H]1CCN(Cc2ccoc2)C[C@@H]1Cc1ccccc1,2.061,-
COC(=O)N1CCN(Cc2ccccc2Cl)CC1,1.205,-1.547
CCC(CN1CCOCC1)n1cncc1-c1ccc2c(c1)CCN2CC (configuration not stated),-7.485,9.262
Cc1nc(CCC(N)=O)cc(C2CCNCC2)n1,-3.632,-
CNC(=O)c1cccc(NC(=O)c2ccnc(N(C)C)c2)c1C,-4.75,1.432
Cc1nc(CN2CC(CCCc3ccccn3)(C(=O)N(C)C)C2)co1,3.641,0.6343
Cc1ccccc1CN1CCC(CNc2ncnc3c2CCNCC3)C1 (configuration not stated),-21.65,-2.79
CN(Cc1nnnn1C1CC1)c1cccc2ccccc12,-3.984,-0.2865
CC(C)c1nnc(N2C[C@@H]3CC[C@H](C2)N(Cc2ccccc2)C3)s1,1.942,2.16
Cc1nc(C2(O)CCCNCC2)sc1CCOc1ccc(Cl)cc1 (configuration not stated),-5.833,-2.425
Cn1cc(CN2CCCC(CCc3ccc(F)cc3F)C2)cn1 (configuration not stated),1.711,0.5961
O=c1nc(SCc2cccnc2)c2c(n1CCO)CCCC2,1.623,2.346
O=c1oc(-c2cccs2)nn1CC(O)c1ccc2c(c1)CCC2 (configuration not stated),6.198,6.589
Cc1ncc(CN2CCC3(CCCN(CC4CCC4)C3)C2)cn1 (configuration not stated),1.456,5.904
Cc1nn(C)c2nc(NC(C)c3nnn[nH]3)sc12 (configuration not stated),0,7.048
CC(NCc1nnc2n1CCCC2)c1nc(C(C)(C)C)no1 (configuration not stated),4.136,6.754
CC(=O)Nc1ccc(Cl)c(C(=O)N(C)C(C)c2nccs2)c1 (configuration not stated),7.042,0.09311
O=C1CSC(c2ccc3c(c2)OCO3)c2cn[nH]c2N1 (configuration not stated),1.579,-4.235
COc1ccc(Oc2ncccc2C(N)=O)cc1CN1CCCC1,1.615,-0.1447
CS(=O)(=O)N1CCC2(CC1)COC(COc1ccccn1)C2 (configuration not stated),0,-4.841
O=S1(=O)NC(C2CCN(Cc3ccncc3)CC2)Nc2ccccc21 (configuration not stated),-2.354,-
COCCN1C(=O)CCC12CCCN(Cc1nccs1)CC2 (configuration not stated),2.101,-6.141
Cc1csc(N2CCCN(C(=O)C3(C#N)CCCC3)CC2)n1,9.252,-5.461
COc1ccc(CN2CCn3cccc3C2C)cc1F (configuration not stated),-22.73,0.7965
Cc1nc[nH]c1CN1CCN(C(=O)CN2CCCC2)[C@H]2CS(=O)(=O)C[C@H]21,-0.5109,0.1236
O=C(O)c1cc(NS(=O)(=O)c2ccc(Cl)s2)ccc1N1CCOCC1,-10.14,2.545
CC(C(=O)N(Cc1ccccc1)CC(F)(F)F)S(C)(=O)=O (configuration not stated),8.058,-0.5202
O=C(NCc1cc(Br)cs1)Nc1cn[nH]c1,3.137,2.601
Cc1cc(-c2ccc(=O)n(C3CCN(C(=O)C4CC4)CC3)n2)c(C)o1,-3.325,0.7473
CCc1nc(CN2CCCN(c3nccs3)CC2)no1,3.614,-2.638
O=C1NC2(CCc3ccccc31)CCN(C(=O)c1ccncc1)C2 (configuration not stated),-2.632,-0.9115
CCC(=O)N1CCCC(c2nc(-c3cccnn3)no2)C1 (configuration not stated),-,-0.8256
c1cncc(CN2CCn3c(Cn4cncn4)cnc3C2)c1,3,0.7819
Cc1cc(C(F)(F)F)n2nc(C3CCN(S(=O)(=O)N(C)C)CC3)cc2n1,-9.987,0.8293
CCCc1ccc(OCCNCc2ccco2)c(OC)c1,0.2558,-2.047
CC1CN(C)CCN1CC(=O)NCCOc1ccc(Cl)cc1 (configuration not stated),8.593,22.25
COCCCSc1ccc(NCc2ccc(C)cn2)cc1,3.165,-3.972
CN(CC(=O)N1CCOCC(CO)C1)Cc1ccc(F)cc1 (configuration not stated),-1.077,-1.098
CCC(CNC1CCN(C(=O)N(C)C)CC1)Oc1ccccc1C (configuration not stated),-1.208,6.727
OCCn1nccc1C1CCN(CCOc2ccccc2)CC1,1.956,6.07
O=C(CCCNCc1ccc(Cl)c2cccnc12)NC1CC1,-4.418,0.455
CC(C)C(C)NC(=O)CCN1C(=O)CCc2cc(F)ccc21 (configuration not stated),-4.968,-1.343
CCN1C(=O)CC[C@]12CC[C@@H](NC(=O)NCc1cccnc1)CC2,1.733,-
CC(C)(C)OC(=O)NC1CCCN(Cc2cccs2)C1 (configuration not stated),2.8,19.41
CN(Cc1ccccc1CN1CCCC1)c1ncnc2[nH]ccc12,10.86,-1.805
CNc1cncc(C2CCN(C(=O)c3cnco3)CC2)n1,8.219,-0.3771
Cn1ccnc1COc1ccc(CN2CCC(C(N)=O)CC2)cc1,3.742,-3.7
CS(=O)(=O)CCC(=O)N1CCC2(CCCN(C3CCOCC3)C2=O)C1 (configuration not stated),8.817,1.069
CNc1cncc(C2CCCN2C(=O)c2ccc3nc(C)[nH]c3c2)n1 (configuration not stated),1.942,-
COc1cccc(OCCn2c(C)c(C)oc2=O)c1,-8.28,-3.601
Cc1ccc(F)c(NC(=O)NCCCn2nc3ccccn3c2=O)c1,-1.513,-2.684
Cc1nc(C)c(C(=O)N2CCCN(Cc3cnn(C)c3)CC2)s1,7.127,-1.058
CC1CCCCN1C1CN(c2nc(C3CCCC3)nc3c2cnn3C)C1 (configuration not stated),4.405,-3.133
COC(=O)CC1CN(Cc2c(Cl)ccc3cccnc23)CCO1 (configuration not stated),-,2.523
Cc1cc(CN2CCN(C(=O)c3ccc(=O)n(C)c3)CC2)no1,-0.7782,-1.519
CC(C)N1c2sc(-c3ccccc3)nc2CC1C(=O)NCCCO (configuration not stated),9.631,1.098
c1ccc(CN2CCc3nnc(COc4ccccn4)n3CC2)nc1,-9.664,-0.1744
O=C(NC1CCCN(CCc2ccccc2)C1)c1cnccn1 (configuration not stated),0.8424,1.908
Cn1cccc1CN1CCc2c(nc(-c3ccccn3)[nH]c2=O)C1,0.9804,-
CC(=O)c1c(F)cccc1NC1CCN(S(=O)(=O)C2CC2)CC1,15.84,0.000009
Cn1cc(-c2noc(C3(C)CCOCC3)n2)cn1,-1.86,-0.7802
CN(Cc1cnccn1)S(=O)(=O)N1CCCC1c1ccco1 (configuration not stated),7.347,3.483
NC(=O)C1CCCN(S(=O)(=O)c2cnn(-c3ccccc3)c2)C1 (configuration not stated),18.26,1.252
CN(Cc1ccccc1OC(F)(F)F)C(=O)C1CCCN(C(N)=O)C1 (configuration not stated),1.085,1.312
Cc1cc(-n2cccn2)ccc1CN1CCC(O)(CN2CCCCC2)C1 (configuration not stated),0.861,-4.613
CCN(Cc1nc2c(cnn2C)c(=O)[nH]1)c1cc(C)ccc1C,-3.241,-3.749
Cc1cnc(CN(C)C2CCN(Cc3ccc(Cl)s3)C2)o1 (configuration not stated),0.5089,2.418
O=C(C1CC(=O)N(c2n[nH]c3cc(Br)ccc23)C1)N1CCSCC1 (configuration not stated),1.823,-1.125
O=C(NC1CCCN(Cc2c(F)cccc2F)C1)c1cc[nH]n1 (configuration not stated),3.185,-4.601
CCC(c1ccccc1)N1CCN(C(=O)c2cc(C(N)=O)c[nH]2)CC1 (configuration not stated),-,-3.818
CN(Cc1nnn(CC2CCC2)n1)C(=O)c1ccccc1,0.3802,-3.525
CCOc1ccccc1C(C(=O)O)N(C)Cc1nnc(C)o1 (configuration not stated),11,4.391
Cc1cc(N2CCCN(Cc3ccc(C)o3)CC2)ccn1,-14.91,-0.4471

The last 9 entries again:

Result for Cc1cc(-n2cccn2)ccc1CN1CCC(O)(CN2CCCCC2)C1 (configuration not stated) was A: 0.861%; B: -4.613%.
Result for CCN(Cc1nc2c(cnn2C)c(=O)[nH]1)c1cc(C)ccc1C was A: -3.241%; B: -3.749%.
Result for Cc1cnc(CN(C)C2CCN(Cc3ccc(Cl)s3)C2)o1 (configuration not stated) was A: 0.5089%; B: 2.418%.
Result for O=C(C1CC(=O)N(c2n[nH]c3cc(Br)ccc23)C1)N1CCSCC1 (configuration not stated) was A: 1.823%; B: -1.125%.
Result for O=C(NC1CCCN(Cc2c(F)cccc2F)C1)c1cc[nH]n1 (configuration not stated) was A: 3.185%; B: -4.601%.
Result for CCC(c1ccccc1)N1CCN(C(=O)c2cc(C(N)=O)c[nH]2)CC1 (configuration not stated) was B: -3.818%.
Result for CN(Cc1nnn(CC2CCC2)n1)C(=O)c1ccccc1 was A: 0.3802%; B: -3.525%.
Result for CCOc1ccccc1C(C(=O)O)N(C)Cc1nnc(C)o1 (configuration not stated) was A: 11%; B: 4.391%.
Result for Cc1cc(N2CCCN(Cc3ccc(C)o3)CC2)ccn1 was A: -14.91%; B: -0.4471%.

Source: ChEMBL document CHEMBL3988442, “University of Dundee, Small-Polar-MMV Screening Library” (2021).